Crude yield and step yield data for 1 substance are collected here from patent publication US4478827A (The General Hospital Corporation, priority 1983, dated 1984).

The nature of data set [1]: Boc solid-phase peptide synthesis; Merrifield resin; LeBop. The following applies: whole synthesis, from protected peptidyl-polymer after HF cleavage, scale 377 micromoles.
The nature of data set [2]: general procedure: Boc solid-phase peptide synthesis; LS-601 Merrifield Resin containing 0.75 mMol Cl g^-1 (Laboratory Systems Inc.); LeBop. The settings on record: purification step, on 391 mg crude.

Strings that start with PEPTIDE1 are HELM notation: dots part the residues, brackets hold end groups and non-standard residues.

“PEPTIDE1{P.H.P.F.H.F.F.V.Y.[dK]}$$$$V2.0”: in data set [1], the crude yield is 92%. Moreover, the step yield in data set [2] is given as 80%.
